No constants are given. Whether binding was seen depends on the method and setting. In cells and extracts the contact can be indirect. A yes stands for co-enrichment or nearness to the bait. Other partners may have been found.
The substances below were run against HA-V1b2 (mouse) (UniProt P62814) (assay: affinity purification with mass spectrometry).

The chains behind the UniProt entries cited, without tags or fusion partners.
UniProt P62814: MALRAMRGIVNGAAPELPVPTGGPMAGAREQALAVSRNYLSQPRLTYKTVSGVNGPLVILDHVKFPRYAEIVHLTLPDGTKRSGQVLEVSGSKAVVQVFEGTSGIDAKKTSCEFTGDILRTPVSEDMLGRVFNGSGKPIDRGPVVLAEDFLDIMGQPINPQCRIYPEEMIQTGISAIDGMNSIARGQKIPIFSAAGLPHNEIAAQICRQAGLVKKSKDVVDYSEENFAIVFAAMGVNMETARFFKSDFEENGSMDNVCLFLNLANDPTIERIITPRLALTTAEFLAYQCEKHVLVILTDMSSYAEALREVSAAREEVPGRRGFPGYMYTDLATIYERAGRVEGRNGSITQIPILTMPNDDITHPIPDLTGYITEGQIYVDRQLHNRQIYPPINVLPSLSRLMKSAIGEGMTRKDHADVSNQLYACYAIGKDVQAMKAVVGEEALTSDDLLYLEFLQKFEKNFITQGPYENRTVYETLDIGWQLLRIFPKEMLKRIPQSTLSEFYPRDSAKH
UniProt Q6PNC0: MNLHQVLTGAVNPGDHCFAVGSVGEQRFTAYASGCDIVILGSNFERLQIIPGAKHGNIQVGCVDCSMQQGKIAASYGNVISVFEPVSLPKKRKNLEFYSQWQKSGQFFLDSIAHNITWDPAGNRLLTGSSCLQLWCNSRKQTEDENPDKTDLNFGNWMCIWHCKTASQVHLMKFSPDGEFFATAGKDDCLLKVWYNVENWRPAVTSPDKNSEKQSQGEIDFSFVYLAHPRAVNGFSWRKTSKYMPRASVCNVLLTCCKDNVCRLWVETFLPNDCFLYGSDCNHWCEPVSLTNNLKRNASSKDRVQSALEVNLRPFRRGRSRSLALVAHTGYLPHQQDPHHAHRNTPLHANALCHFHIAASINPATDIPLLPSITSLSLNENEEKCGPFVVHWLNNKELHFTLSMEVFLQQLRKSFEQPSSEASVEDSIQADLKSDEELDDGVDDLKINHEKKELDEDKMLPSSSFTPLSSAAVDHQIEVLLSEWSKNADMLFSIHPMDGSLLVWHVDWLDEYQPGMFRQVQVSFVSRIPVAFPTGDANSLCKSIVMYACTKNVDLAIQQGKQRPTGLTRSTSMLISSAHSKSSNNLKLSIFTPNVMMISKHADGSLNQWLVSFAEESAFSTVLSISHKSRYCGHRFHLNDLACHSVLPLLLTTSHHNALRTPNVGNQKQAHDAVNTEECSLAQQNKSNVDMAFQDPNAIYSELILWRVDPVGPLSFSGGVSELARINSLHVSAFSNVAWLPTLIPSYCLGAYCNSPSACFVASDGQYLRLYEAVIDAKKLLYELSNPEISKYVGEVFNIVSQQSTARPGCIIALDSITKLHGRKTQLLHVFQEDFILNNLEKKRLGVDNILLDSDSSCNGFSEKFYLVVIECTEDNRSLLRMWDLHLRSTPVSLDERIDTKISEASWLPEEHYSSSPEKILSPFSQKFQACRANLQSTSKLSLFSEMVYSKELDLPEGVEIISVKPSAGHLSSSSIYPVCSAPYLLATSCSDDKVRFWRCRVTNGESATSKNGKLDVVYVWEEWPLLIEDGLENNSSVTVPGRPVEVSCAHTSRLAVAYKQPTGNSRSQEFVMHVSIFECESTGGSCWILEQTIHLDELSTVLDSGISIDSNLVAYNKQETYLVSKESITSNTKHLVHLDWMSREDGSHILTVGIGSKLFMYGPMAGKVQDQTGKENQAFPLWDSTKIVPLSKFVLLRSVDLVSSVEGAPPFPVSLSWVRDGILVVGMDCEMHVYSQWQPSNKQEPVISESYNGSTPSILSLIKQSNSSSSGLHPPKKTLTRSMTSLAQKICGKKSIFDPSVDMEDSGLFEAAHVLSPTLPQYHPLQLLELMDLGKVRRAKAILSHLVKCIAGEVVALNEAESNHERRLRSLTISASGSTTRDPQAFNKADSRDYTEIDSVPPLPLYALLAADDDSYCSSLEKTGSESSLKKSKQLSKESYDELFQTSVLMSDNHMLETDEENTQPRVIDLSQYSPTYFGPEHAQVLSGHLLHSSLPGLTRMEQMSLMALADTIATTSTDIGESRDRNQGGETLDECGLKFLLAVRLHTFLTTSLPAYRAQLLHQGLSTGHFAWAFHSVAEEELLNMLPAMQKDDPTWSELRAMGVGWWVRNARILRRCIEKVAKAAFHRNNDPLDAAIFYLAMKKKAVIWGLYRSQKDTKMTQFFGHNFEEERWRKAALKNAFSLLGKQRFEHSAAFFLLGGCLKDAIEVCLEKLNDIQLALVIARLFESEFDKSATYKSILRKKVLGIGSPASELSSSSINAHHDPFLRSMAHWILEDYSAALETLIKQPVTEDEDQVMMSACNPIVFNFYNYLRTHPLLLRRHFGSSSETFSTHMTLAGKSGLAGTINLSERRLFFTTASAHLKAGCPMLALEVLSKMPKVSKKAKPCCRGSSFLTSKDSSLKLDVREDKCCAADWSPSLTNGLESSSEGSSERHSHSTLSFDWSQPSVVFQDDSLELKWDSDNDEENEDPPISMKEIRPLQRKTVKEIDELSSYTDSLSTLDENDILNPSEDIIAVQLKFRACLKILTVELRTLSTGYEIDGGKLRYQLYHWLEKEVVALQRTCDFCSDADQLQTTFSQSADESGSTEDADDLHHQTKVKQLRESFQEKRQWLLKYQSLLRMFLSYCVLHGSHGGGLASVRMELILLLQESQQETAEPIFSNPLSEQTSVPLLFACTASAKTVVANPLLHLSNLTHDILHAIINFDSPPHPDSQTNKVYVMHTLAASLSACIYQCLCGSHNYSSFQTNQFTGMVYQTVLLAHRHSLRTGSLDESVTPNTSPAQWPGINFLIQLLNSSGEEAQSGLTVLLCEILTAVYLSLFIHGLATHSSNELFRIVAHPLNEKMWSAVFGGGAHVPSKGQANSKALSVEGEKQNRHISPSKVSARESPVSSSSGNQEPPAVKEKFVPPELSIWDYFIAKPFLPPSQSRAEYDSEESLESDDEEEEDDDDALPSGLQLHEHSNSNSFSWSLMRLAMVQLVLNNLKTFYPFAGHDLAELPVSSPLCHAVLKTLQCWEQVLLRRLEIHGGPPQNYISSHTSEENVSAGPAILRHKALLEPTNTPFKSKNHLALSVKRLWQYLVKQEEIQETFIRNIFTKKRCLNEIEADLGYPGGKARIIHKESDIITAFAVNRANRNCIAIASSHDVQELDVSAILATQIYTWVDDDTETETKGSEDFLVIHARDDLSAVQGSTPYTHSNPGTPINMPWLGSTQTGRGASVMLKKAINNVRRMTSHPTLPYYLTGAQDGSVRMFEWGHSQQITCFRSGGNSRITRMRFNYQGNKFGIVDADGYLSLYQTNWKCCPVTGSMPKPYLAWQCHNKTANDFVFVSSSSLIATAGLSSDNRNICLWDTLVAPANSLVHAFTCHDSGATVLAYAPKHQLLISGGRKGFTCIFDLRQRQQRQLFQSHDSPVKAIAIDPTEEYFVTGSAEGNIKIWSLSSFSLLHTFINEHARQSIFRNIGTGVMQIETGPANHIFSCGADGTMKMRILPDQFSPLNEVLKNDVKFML
UniProt Q3TDK6: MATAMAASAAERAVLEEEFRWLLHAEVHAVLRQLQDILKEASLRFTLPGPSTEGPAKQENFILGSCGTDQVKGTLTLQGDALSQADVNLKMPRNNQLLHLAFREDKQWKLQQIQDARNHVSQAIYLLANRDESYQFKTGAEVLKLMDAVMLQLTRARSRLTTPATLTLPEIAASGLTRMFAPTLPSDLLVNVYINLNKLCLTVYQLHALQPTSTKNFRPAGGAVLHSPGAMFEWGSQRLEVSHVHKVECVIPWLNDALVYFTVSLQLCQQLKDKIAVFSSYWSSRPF
UniProt Q920I9: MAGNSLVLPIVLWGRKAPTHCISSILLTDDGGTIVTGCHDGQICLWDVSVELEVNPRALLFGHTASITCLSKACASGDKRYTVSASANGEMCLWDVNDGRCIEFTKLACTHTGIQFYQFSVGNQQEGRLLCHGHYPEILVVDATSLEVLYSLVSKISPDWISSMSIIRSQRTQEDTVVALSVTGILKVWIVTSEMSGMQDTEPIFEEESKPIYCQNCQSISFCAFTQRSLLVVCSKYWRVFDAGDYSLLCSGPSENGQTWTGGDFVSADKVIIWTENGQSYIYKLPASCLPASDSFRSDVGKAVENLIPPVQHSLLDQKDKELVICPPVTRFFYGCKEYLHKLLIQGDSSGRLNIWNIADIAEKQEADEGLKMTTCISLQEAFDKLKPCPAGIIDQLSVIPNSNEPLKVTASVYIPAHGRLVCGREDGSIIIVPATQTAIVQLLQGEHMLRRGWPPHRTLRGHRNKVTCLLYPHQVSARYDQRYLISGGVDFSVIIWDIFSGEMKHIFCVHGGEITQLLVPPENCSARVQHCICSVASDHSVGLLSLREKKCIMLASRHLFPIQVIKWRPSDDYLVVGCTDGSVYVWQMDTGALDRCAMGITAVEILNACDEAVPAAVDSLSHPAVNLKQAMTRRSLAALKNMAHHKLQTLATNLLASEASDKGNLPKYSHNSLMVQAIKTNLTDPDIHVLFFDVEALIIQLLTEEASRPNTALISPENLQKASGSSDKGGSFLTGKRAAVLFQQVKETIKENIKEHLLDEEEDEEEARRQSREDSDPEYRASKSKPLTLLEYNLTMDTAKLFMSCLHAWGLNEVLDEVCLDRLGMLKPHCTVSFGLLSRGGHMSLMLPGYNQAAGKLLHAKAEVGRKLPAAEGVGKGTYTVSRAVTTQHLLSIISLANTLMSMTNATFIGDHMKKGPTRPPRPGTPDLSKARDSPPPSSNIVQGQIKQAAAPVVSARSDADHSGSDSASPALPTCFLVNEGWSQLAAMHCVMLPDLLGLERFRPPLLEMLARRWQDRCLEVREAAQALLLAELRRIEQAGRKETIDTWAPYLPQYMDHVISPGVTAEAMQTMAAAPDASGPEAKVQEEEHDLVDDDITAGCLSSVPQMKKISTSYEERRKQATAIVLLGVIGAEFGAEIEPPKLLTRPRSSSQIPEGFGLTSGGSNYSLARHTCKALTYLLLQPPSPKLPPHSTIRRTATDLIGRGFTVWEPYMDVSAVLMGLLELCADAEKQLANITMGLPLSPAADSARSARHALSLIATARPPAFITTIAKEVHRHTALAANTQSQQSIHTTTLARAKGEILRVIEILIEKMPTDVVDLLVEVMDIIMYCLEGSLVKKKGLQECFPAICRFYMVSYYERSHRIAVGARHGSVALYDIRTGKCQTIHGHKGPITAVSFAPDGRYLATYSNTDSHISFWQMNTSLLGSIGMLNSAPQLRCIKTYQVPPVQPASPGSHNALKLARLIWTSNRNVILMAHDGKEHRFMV

binding, binds:
Dmxl1 (from UniProt Q6PNC0 1-3013), Rogdi (from UniProt Q3TDK6 1-287), Wdr7 (from UniProt Q920I9 1-1489)
